# According to the supplement of paper PMC3334620:
# Over roughly 33,000 sequences, “E-score (-0.5 to 0.5)” has its median near -0.015; the highest 2% begin near 0.3. This is one part of the list.
# Target: T1, Abf1 (UniProt P14164)
# T1 sequence: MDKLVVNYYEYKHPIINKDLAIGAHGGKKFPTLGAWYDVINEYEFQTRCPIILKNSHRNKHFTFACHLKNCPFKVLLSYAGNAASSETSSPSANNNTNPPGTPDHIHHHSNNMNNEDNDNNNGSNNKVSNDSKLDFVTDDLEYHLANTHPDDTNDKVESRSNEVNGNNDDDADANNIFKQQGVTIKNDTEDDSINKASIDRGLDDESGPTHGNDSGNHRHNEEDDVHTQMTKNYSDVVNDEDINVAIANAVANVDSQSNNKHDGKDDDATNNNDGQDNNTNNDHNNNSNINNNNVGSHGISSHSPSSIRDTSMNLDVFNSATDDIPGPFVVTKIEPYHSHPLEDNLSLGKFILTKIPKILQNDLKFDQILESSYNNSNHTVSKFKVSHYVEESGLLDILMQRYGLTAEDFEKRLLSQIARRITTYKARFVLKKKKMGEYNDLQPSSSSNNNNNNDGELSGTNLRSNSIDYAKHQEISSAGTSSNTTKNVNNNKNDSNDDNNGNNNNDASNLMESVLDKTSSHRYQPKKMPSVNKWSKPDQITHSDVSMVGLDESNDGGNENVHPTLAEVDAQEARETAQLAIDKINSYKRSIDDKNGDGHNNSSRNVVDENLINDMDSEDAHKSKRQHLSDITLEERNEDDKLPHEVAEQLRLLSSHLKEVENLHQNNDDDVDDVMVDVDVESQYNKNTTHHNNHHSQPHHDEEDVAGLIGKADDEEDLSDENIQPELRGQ
# Assay: PBM E-score (8-mer binding enrichment) (E-score (-0.5 to 0.5)); higher = stronger / more preferred TF binding
# Details: protein concentration: 200 nM; construct: GST-full length
# Description: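 Universal 'all 10-mer' protein binding microarrays (Agilent AMADID 015681) probed with GST-tagged S. cerevisiae TFs (full-length or DBD) made by in vitro transcription/translation (PURExpress), about 100-200 nM. Bound TF was detected with fluorescent anti-GST. Each ungapped 8-mer (which stands for itself and its reverse complement) is scored by the PBM enrichment score (E-score), a modified Wilcoxon-Mann-Whitney statistic from -0.5 to +0.5, computed with the Universal PBM Analysis Suite. Scale: above 0.35 generally sequence-specific binding.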
row,Sequence,PBM E-score
1,ACTAAGGG,0.0508
2,AAGCCGCC,-0.304
3,AGCAGTTA,0.0105
4,AATACCTC,0.0736
5,CTTCTCTA,-0.175
6,TCTTCTAA,-0.0284
7,ACGCAAGC,0.184
8,AGAACCAT,0.0311
9,TAATTTAA,0.0848
10,GATCTGCA,0.0807
11,CATAGTCC,-0.0117
12,ACGCCGCT,-0.163
13,CACCGTGA,0.227
14,ACCCGCAG,-0.0484
15,AAACCTAC,0.0111
16,AACATATT,0.155
17,GGTCATTA,0.134
18,ATGATCAC,0.335
19,ATTTCAGA,0.123
20,CGCAACGA,0.0407
21,AACTTCGG,0.0303
22,GTTTCATA,-0.144
23,CAGATGCG,0.00587
24,TTCGGCAA,0.0515

row,Sequence,PBM E-score
1,CTCAAAAA,0.00747
2,AAACTAGG,-0.107
3,GCCCGTAC,0.215
4,CCACAAAC,0.0774
5,AGCCCTCA,-0.11
6,GTTGAACA,-0.00998
7,GGTCCCCA,-0.124
8,CGTTCCAA,0.148
9,TAAGAAAA,0.0217
10,GGTCTGCA,-0.218
11,ATTTCGGG,-0.114
12,AAAGGGAC,-0.109
13,CGCTACGC,-0.106
14,ACGCTCAT,0.121
15,CTACGATC,0.195
16,ACATTTAC,0.117
17,CGGCGTAG,0.107
18,ACAATTGC,-0.12
19,ACCGGGTC,-0.0376
20,ACTGGTAT,0.0243
21,CTTTATAA,-0.052
22,ACTCGACA,0.103
23,CTCTGTCA,0.0896
24,CTAAAGGC,-0.0574

row,Sequence,PBM E-score
1,CGTTTTTA,0.236
2,GGGCATAC,-0.162
3,CCTAGTGA,0.123
4,ATTCAGAC,0.0408
5,GGTCTGAC,-0.127
6,CTGTCCAA,-0.0401
7,CTTACTTC,0.0316
8,CGAAAGTA,-0.0497
9,GACTCGGA,-0.127
10,CCATTTCG,-0.0163
11,GGGCGCCA,-0.0195
12,CCACCCTA,-0.201
13,CCATTTAG,-0.118
14,ATCCTGGG,-0.103
15,AACATAAC,0.128
16,CCGATTAG,0.00495
17,ACGGAAGG,-0.147
18,CTCGGTTA,-0.0208
19,TCTTGTAA,0.0644
20,CACCTGGA,-0.038
21,TCAAGCCA,-0.127
22,CTCCGGGC,-0.218
23,CCCCGAGC,-0.147
24,CTATCAAA,0.121

# Quoted from the listing (two entries):
row,Sequence,PBM E-score
18,CTCGGTTA,-0.0208
19,TCTTGTAA,0.0644

# Reformatted: results already given.
row | Sequence | PBM E-score
9 | TAATTTAA | 0.0848
9 | GACTCGGA | -0.127
19 | TCTTGTAA | 0.0644

# (further entries)

row,Sequence,PBM E-score
1,GAAAGGTA,0.211
2,GCGTGCCC,-0.273
3,AGATGCTG,-0.13
4,CCTACGAG,0.163
5,CCTAGAGA,-0.024
6,GATGCTCC,-0.0364
7,GCAGCTGC,-0.198
8,TCGGCGCA,-0.103
9,AAAAACCC,0.0017
10,CTAGTGTA,-0.0115
11,ATAGGTGA,0.189
12,CTACTCGC,-0.0849
13,TGCTGCAA,0.0694
14,CCGACCAG,-0.242
15,AAGCCAGG,-0.0949
16,ATCCCCGC,-0.211
17,GATTATAC,0.231
18,CTGGTGCA,-0.124
19,CATGACTC,-0.16
20,CCGGAACC,-0.181
21,CAGAGCAA,-0.132
22,CTGTGATC,0.0861
